Experiment [1] addresses human PCSK9 (proprotein convertase subtilisin kexin type 9), mature form (human). The experiment is described as follows: western blot, denaturing reducing and non-reducing. (Immunoblotting shows a protein as a band on a membrane.)
The target is the same in experiment [2]. As to the kind of experiment: in vitro binding data (Biacore and Kinexa). (In SPR one partner is held on a chip, and binding of the other changes the refractive index at the surface.)

No constants are given. Whether binding was seen depends on the method and setting. Binding calls can cover weak binding; strength is not graded here.

B1: 13H1 (antibody, V domains shown)
VH: QVQLQQSGPGLVKPSQTLSLTCAISGDSVSSNSAAWNWIRQSPSRGLEWLGRTYYRSKWYKNYSVSVKSRITINPDTSKNQFSLQLNSVTPGDTAVYYCARGGPTAAFDYWGQGTLVTVSS
VL: LSALTQPASVSGSPGQSITISCTGTSSDVGNYNLVSWYQQYSGKAPKLMIYEVSKRPSGVSNRFSGSKSGNTASLTISGLQAEDEADYYCCSYAGSSTLVFGGGTKLTVL
As to B1, the binding result in experiment [1] is “binds”.

B2: 16F12, anti-PCSK9 huIgG4 (antibody, V domains shown)
VH: QVHLVESGGGVVQPGRSLRLSCAASGFTFNSFGMHWVRQAPGKGLEWVALIWSDGSDEYYADSVKGRFTISRDNSKNTLYLQMNSLRAEDTAVYYCARAIAALYYYYGMDVWGQGTTVTVSS
VL: QSVLTQPPSVSAAPGQKVTISCSGSSSNIGNNFVSWYQQLPGTAPKLLIYDYNKRPSGIPDRFSGSKSGTSATLGITGLQTGDEADYYCGTWDSSLSAYVFGTGTRVTVLQ
Consider B2, for which the binding entry in experiment [2] is “binds”.

B3: 21B12, anti-PCSK9 huIgG4 (antibody, V domains shown)
VH: QVQLVQSGAEVKKPGASVKVSCKASGYTLTSYGISWVRQAPGQGLEWMGWVSFYNGNTNYAQKLQGRGTMTTDPSTSTAYMELRSLRSDDTAVYYCARGYGMDVWGQGTTVTVSS
VL: QSALTQPASVSGSPGQSITISCTGTSSDVGGYNSVSWYQQHPGKAPKLMIYEVSNRPSGVSNRFSGSKSGNTASLTISGLQAEDEADYYCNSYTSTSMVFGGGTKLTVLQ
Regarding B3, the binding result in experiment [2] is listed as “binds”.

(Values after patent publication US20120020975A1.)
